According to PubChem BioAssay AID2685 (National Center for Advancing Translational Sciences (NCATS), 2010):
This is one part of the list. The main result of the screen is listed elsewhere. These columns were measured beside it and carry no call. Compounds called inactive in the main read-out are mostly missing here. Potencies come from curve fits of mixed quality, noted in brackets.

Assay: qHTS Assay for Lipid Storage Modulators in Drosophila S3 Cells;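 as to cell number change: cells counted by Cell Tracker Red CMTPX staining in the red channel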
Conditions: BODIPY lipid droplet fluorescence, 18-24 h; for cell number change: measured here: cell count max response, cells fed with added oleic acid
Procedure, shortened: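 Laser-scanning cytometry quantifies lipid droplet accumulation (500–530 nm total intensity; droplet/cell object ratio) in oleic acid-fed (400 uM added) Drosophila S3 cells treated with a concentration series. 20 uM Triacsin C defined 100% inhibition.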

[1] = measured here: lipid fluorescence (Fed channel) AC50, cells fed with added oleic acid
[2] = measured here: cell number channel AC50, cells fed with added oleic acid

SMILES	cell number change [%]	AC50 [1]	AC50 [2]
COc1cc(SC)ccc1C(=O)Nc1ncc(Cl)cc1Cl	13.3		
O=C(CSc1nnc(-c2ccccc2O)o1)N1CCc2ccccc2C1	10.8		
Cc1c(Cl)cccc1NC(=O)CCC(=O)NNC(=O)c1ccco1	-20.5	32.6 µM [falling, single point]	
CC1(CCc2ccc(O)cc2)NC(=O)NC1=O (stereo not given)	42.6	0.731 µM [falling, full curve]	29.1 µM [rising, single point]
CC1CCCCC1NC(=O)C(Cc1ccccc1)NS(=O)(=O)c1cccs1 (stereo not given)	-107	1.16 µM [rising, full curve]	18.4 µM [falling, single point]
N#Cc1ccc2c(c1)C[C@]1(c3ccsc3)Oc3c(c(=O)oc4ccc(F)cc34)C2O1	-1.45	0.0841 µM [rising, full curve]	
O=C1CSC(c2ccccc2)N1c1ccccc1F (stereo not given)	14.3		
Cc1ccnc(NC(=O)c2ccc(Cl)c(S(=O)(=O)N3CCCCC3)c2)c1	-11.1	11.6 µM [falling, partial curve]	
C=CCn1c(=O)c2ccccc2n2c(SCC(=O)/C(C#N)=C(\C)N)nnc12	-21.2	20.6 µM [falling, single point]	
CCOC(=O)/C=c1\s/c(=C\c2ccc3cc(OC)ccc3c2)c(=O)n1CC(=O)NCc1ccc2c(c1)OCO2		23.1 µM [rising, partial curve]	
COC(=O)[C@@H](NC(=O)c1ccccc1)[C@@H](C)O	14.4		
Cc1cccc(-c2ocnc2C(=O)Nc2ccccc2C(=O)N2CCCC2)c1	1.67		
Oc1ccc(-c2nc3ncccn3c2Nc2ccc3c(c2)OCCO3)cc1	62.6	20.6 µM [rising, partial curve]	29.1 µM [rising, single point]
COc1ccc(C(=O)COC(=O)CCN2C(=O)C3C4C=CC(C5CC45)C3C2=O)cc1 (stereo not given)	2.64	6.51 µM [falling, full curve]	
CC(C)(C)OC(=O)NCCCC[C@@H](C(=O)NCCCCCCCCCCC(=O)N1CCN(C(=O)OC(C)(C)C)CC1)n1cc(CCO)nn1	-33.6	6.51 µM [rising, single point]	18.4 µM [falling, single point]
CCCCCC[N+](C)(C)CC/C=C1/c2ccccc2Sc2ccc(Cl)cc21	-70.5	32.6 µM [falling, partial curve]	25.9 µM [falling, partial curve]
COc1ccc(NC(=O)CC2C(=O)N(C)C(=S)N2Cc2ccco2)cc1 (stereo not given)	-15.6		
Cc1ccc(NC(=O)c2sc3ncn(CC(=O)N4CCN(c5ccccn5)CC4)c(=O)c3c2C)cc1F	-19.2		
Cc1ccc2oc(-c3ccccc3)c(C(=O)O)c(=O)c2c1	-9.38	7.31 µM [falling, single point]	
CCn1c(SCC(=O)NCc2ccc3c(c2)OCO3)nnc1-c1ccncc1	-15.7	0.92 µM [falling, full curve, poor fit]	

Molecules from the list above that have a furan ring, fused or not:
SMILES	cell number change [%]	AC50 [1]	AC50 [2]
Cc1c(Cl)cccc1NC(=O)CCC(=O)NNC(=O)c1ccco1	-20.5	32.6 µM [falling, single point]	
COc1ccc(NC(=O)CC2C(=O)N(C)C(=S)N2Cc2ccco2)cc1 (stereo not given)	-15.6		

Single entries from the list:
For AC50 [1], CCn1c(SCC(=O)NCc2ccc3c(c2)OCO3)nnc1-c1ccncc1 has the entry 0.92 µM [falling, full curve, poor fit]
For AC50 [2], CC1(CCc2ccc(O)cc2)NC(=O)NC1=O (stereo not given) has the entry 29.1 µM [rising, single point]

Continuation:

SMILES	cell number change [%]	AC50 [1]	AC50 [2]
O=C(CSc1ncnc2c1cnn2-c1ccccc1)NC1CCCC1			4.61 µM [rising, single point]
O=C1CCc2cc(S(=O)(=O)NCc3ccc(F)cc3)cc3c2N1CC3			1.03 µM [falling, single point]
O=C(NC1(C(=O)NC2CCCC2)CCCCC1)c1ccc2c(c1)OCO2	11.5		0.00517 µM [rising, full curve, poor fit]
CSc1ccc(S(=O)(=O)NCc2ccc(Cl)cc2)cc1		0.58 µM [falling, single point]	
COc1ccc(C2C3=C(CC(C)(C)CC3=O)N(C)C3=C2C(=O)CC(C)(C)C3)cc1OC	-23.5		
CC1CN(C2CCN(C(=O)c3ccccc3)CC2)CC(C)O1 (stereo not given)	-30	3.26 µM [falling, full curve]	0.0259 µM [falling, full curve, poor fit]
O=C(N/C(=C\c1ccco1)C(=O)N1CCC(O)CC1)c1ccccc1	5.26		
Cc1ccc(C(=O)COC(=O)c2ccc(O)cc2)cc1	9.77	5.17 µM [rising, single point]	2.91 µM [rising, partial curve, poor fit]
CCN(CC)c1ccc2cc(C(=O)Nc3cccnc3N3CCOCC3)c(=O)oc2c1	5.26		
CCS(=O)(=O)N1CCN(C2CCC(c3ccccc3)CC2)CC1 (stereo not given)	35	6.51 µM [falling, single point]	29.1 µM [rising, single point]
O=C(N/N=C/c1ccc2c(c1)OCO2)c1cccc(NC(=O)c2ccccc2Cl)c1	17.5		
O=C(CCCCCNC(=O)c1ccccc1Cl)N/N=C/c1ccco1			6.51 µM [rising, partial curve, poor fit]
CC(=O)N1CCCc2ccc(NS(=O)(=O)c3ccc(C)c(C)c3)cc21	-12.8		
CCOc1ccc(/C(O)=C2/C(=O)C(=O)N(c3ncccn3)C2c2ccc(C)cc2)cc1 (stereo not given)	-19.5	0.461 µM [falling, full curve]	
COc1ccc(Cl)cc1NC(=O)CN(C)C(=O)c1ccc2c(c1)OCCO2	128		8.2 µM [rising, partial curve]
CCN(CC(=O)Nc1ccc(Br)cc1)CC(=O)Nc1cc(C)on1	-25		4.11 µM [falling, single point]
Cn1nc(C(=O)N2CCN(c3cccc(Cl)c3)CC2)c2c1-c1ccccc1S(=O)(=O)C2	-8.73	0.092 µM [rising, full curve, poor fit]	
CCOc1ccc2[nH]c3nc(SCC(=O)NC4CCCC4)nnc3c2c1	-5.65		
Cn1c(=O)c2c(nc(NCc3ccc4c(c3)OCO4)n2C)n(C)c1=O	14.3	3.26 µM [rising, single point]	
COc1ccc(S(=O)(=O)N2CCC(C(=O)N(CC(C)C)C3CCS(=O)(=O)C3)CC2)cc1OC (stereo not given)	-18.4	0.103 µM [falling, full curve, poor fit]	

SMILES	cell number change [%]	AC50 [1]	AC50 [2]
CC[C@@H](C(=O)[C@@H](C)[C@@H](O)[C@H](C)CCc1ccc(C)c(O)c1C(=O)O)[C@H]1O[C@](CC)([C@H]2CC[C@](O)(CC)[C@H](C)O2)C[C@@H]1C	-34.1	3.26 µM [falling, partial curve, poor fit]	1.64 µM [falling, partial curve]
CC(C)CCn1c2ccccc2c2cc(CC(N)=O)ccc21	-4.61	13 µM [falling, partial curve, poor fit]	
COc1ccc(N(CC(=O)N2CCCCCC2)S(=O)(=O)c2ccc(OC)c(OC)c2)cc1	17.5		
O=C(Nc1ccc(F)cc1)c1ccc(Br)c(S(=O)(=O)N2CCOCC2)c1	-12.4		
COCCNS(=O)(=O)c1cc(OC)ccc1OC	33.4		
CC1(C)CC(=O)C=C(Nc2ccccc2NC(=O)c2cnccn2)C1		0.82 µM [falling, single point]	
O=C(Nc1cn(-c2ccccc2)nc1-c1cccs1)c1ccco1	-19.2	0.461 µM [rising, full curve, poor fit]	
O=c1[nH]c2ccc(S(=O)(=O)N3CCCCC3)cc2s1	11.8	29.1 µM [rising, single point]	
COc1cc(NC(=O)c2ccccc2F)c(OC)cc1NC(=O)CN1CCOCC1	-31.5	29.1 µM [falling, single point]	29.1 µM [falling, single point]
CCOc1cccc(C2C(C#N)=C(N)Oc3cc(C)[nH]c(=O)c32)c1OCC (stereo not given)	10.2		6.51 µM [rising, single point]
COC(=O)[C@@H](NC(=O)CCc1nnc(-c2ccsc2)o1)C(C)C	-9.93	7.31 µM [falling, partial curve]	
C/C(=N\Nc1nc2ccccc2s1)c1ccc2c(c1)OCO2		3.26 µM [rising, partial curve, poor fit]	0.58 µM [falling, single point]
CC(=O)N1CCN(C(=S)c2ccc(-c3ccc(Cl)cc3)o2)CC1	-39.4	11.6 µM [falling, partial curve]	9.2 µM [falling, partial curve, poor fit]
CN1CCN(C(=O)CCc2ncc(C(F)(F)F)cc2Cl)CC1	-38.5		16.4 µM [falling, single point]
COc1cccc(CN(C)C(=O)C2CCC(=O)N(Cc3cccc(F)c3)C2)c1 (stereo not given)	-9.38		
CN1/C(=C\C(=O)CSc2nnc(N)s2)C(C)(C)c2ccccc21	-9.61	6.51 µM [rising, partial curve]	6.51 µM [rising, single point]
Cc1ccccc1-n1nc2c(c1NC(=O)c1ccc(S(=O)(=O)N(C)C)cc1)CSC2	-12		0.58 µM [falling, single point]
CCOc1ccc(S(=O)(=O)NCC(c2ccc3c(c2)OCO3)N2CCN(C)CC2)cc1 (stereo not given)	-19.2	0.58 µM [falling, full curve]	
CNC(=O)c1cc(S(=O)(=O)N(C)C)ccc1Cl	-16.6	3.66 µM [falling, full curve]	6.51 µM [falling, single point]
CCOC(=O)c1[nH]c(C)c(C(=O)Nc2ccc3c(c2)CCC3)c1C	-17	3.26 µM [rising, partial curve]	
